{"source": "PubChem BioAssay AID540256", "about": "(National Center for Advancing Translational Sciences (NCATS), 2011)", "note": "Screen size: about 300,000 compounds; about 3,700 (1.2%) were called active. Inconclusive results, whose numbers are uncertain, are shown with a selection of clear calls. Calls come from the whole dose curve; tested in HEK293 cells. Where the call is inconclusive, the potency comes from a doubtful curve fit. % is set by controls: 0 for no effect and ±100 for the full control effect; potency is the fitted concentration of half-maximal effect."}
{"assay": "qHTS for Inhibitors of binding or entry into cells for Lassa Virus; note: nearly all actives have a fitted effect of over 50% in size", "settings": "Lassa virus pseudotype entry inhibition, cell reporter; activity change, negative = inhibition: at 37.9 µM (top of the series) unless noted"}
{"smiles": "COc1ccccc1Nc1c2c(nc3ccc(NC(=O)c4ccc(OC)c(OC)c4)cc13)CCCC2", "Potency": "inconclusive: 35.5 µM [inhibitor, single point]"}
{"smiles": "NS(=O)(=O)c1ccc(N2N=C(c3ccccc3)CC2c2ccccc2)cc1", "note": "(centres undefined)", "Potency": "inconclusive: 10 µM [inhibitor, partial curve, poor fit]"}
{"smiles": "CCCn1c(N)c(N(CCOC)C(=O)c2cc3c(s2)CCCCC3)c(=O)[nH]c1=O", "activity change, negative = inhibition": "inactive: 14.7%"}
{"smiles": "CCOC(=O)Cn1c(=O)n(CC2CCCO2)c2nc(-c3ccc(OCC)cc3)nc(C(N)=O)c21", "note": "(centres undefined)", "activity change, negative = inhibition": "inactive: -18.8% [at 46.1 µM]"}
{"smiles": "c1coc(CNc2nc3ccccc3s2)c1", "Potency": "inconclusive: 0.447 µM [activator, partial curve, poor fit]"}
{"smiles": "CC(C)(C)CC(=O)N1CCC(c2nc3c(nnn3Cc3c(F)cccc3Cl)c(=O)[nH]2)CC1", "Potency": "inconclusive: 2.51 µM [inhibitor, full curve]"}
{"smiles": "CC(C)(O)C#Cc1ccc(C(=O)N2CCN(c3ccc([N+](=O)[O-])cc3)CC2)cc1", "Potency": "inconclusive: 35.5 µM [inhibitor, single point]"}
{"smiles": "COc1ccc(NC(=O)c2sc3nc4c(cc3c2N)CCCCCC4)c(OC)c1", "activity change, negative = inhibition": "inactive: 4.72% [at 46.1 µM]"}
{"smiles": "Cc1ccc(OCc2nnc(SCC(=O)O)n2N)cc1", "activity change, negative = inhibition": "inactive: 13.9%"}
{"smiles": "COc1ccccc1NC(=O)CSc1nnc(C2CCCCC2)n1-c1ccccc1", "Potency": "inconclusive: 20 µM [inhibitor, partial curve, poor fit]"}
{"smiles": "NC(=O)C1CCN(CC(O)CSc2ccc(F)cc2)CC1", "note": "(centres undefined)", "Potency": "inconclusive: 35.5 µM [activator, single point]"}
{"smiles": "COc1ccc(C(=O)/C=C/Nc2ccc(S(=O)(=O)Nc3cc(OC)nc(OC)n3)cc2)c(OC)c1", "Potency": "inconclusive: 25.1 µM [inhibitor, partial curve, poor fit]"}
{"smiles": "Cc1cccc(NC(=O)COc2ccccc2C(=O)NC(C)c2ccccc2)c1", "note": "(centres undefined)", "Potency": "inconclusive: 11.2 µM [inhibitor, partial curve, poor fit]"}
{"smiles": "Cc1cc(C)cc(N(CCC#N)C(=O)CSc2nc3ccccc3c(=O)[nH]2)c1", "Potency": "inconclusive: 7.08 µM [inhibitor, full curve, poor fit]"}
{"smiles": "Cc1cccc(Nc2nc(-c3sc(C)nc3C)cs2)c1", "Potency": "inconclusive: 0.316 µM [activator, partial curve, poor fit]"}
{"smiles": "CCCc1nnc(SCC(=O)NC2CC2)n1CC", "Potency": "inconclusive: 11.2 µM [activator, single point]"}
{"smiles": "Cc1cc(=O)[nH]c(NN=Cc2c(Cl)cccc2Cl)n1", "activity change, negative = inhibition": "inactive: 17.2%"}
{"smiles": "COC(=O)[C@@H]1CC[C@H](C)[C@@H](c2ccc(C)cc2)N1C(=O)c1ccc(C=NO[C@@H](C)c2cn([C@H](CO)Cc3ccccc3)nn2)cc1", "activity change, negative = inhibition": "inactive: -6.73% [at 14.3 µM]"}
{"smiles": "COC(=O)c1sc(N/N=C/c2ccc(C(C)C)cc2)nc1C", "Potency": "inconclusive: 10 µM [inhibitor, partial curve, poor fit]"}
{"smiles": "Cc1ccc(Cl)cc1Nc1sc(C(=O)c2ccc(F)cc2)c(N)c1S(C)(=O)=O", "Potency": "inconclusive: 6.31 µM [inhibitor, single point]"}
{"smiles": "COc1ccc(-c2csc(NC(=O)c3cccc(N4C(=O)CCC4=O)c3)n2)cc1OC", "activity change, negative = inhibition": "inactive: -0.76%"}
{"smiles": "COc1ccc(-c2nnc(-c3ccc(C)cc3)o2)cc1", "activity change, negative = inhibition": "inactive: 20.9% [at 46.1 µM]"}
{"smiles": "CC(=O)Nc1ccc(S(=O)(=O)Nc2ccccc2C(=O)N2CCCC2)cc1", "activity change, negative = inhibition": "inactive: -3.42%"}
{"smiles": "Cc1cccc(NC(=O)CNC(=O)COc2ccc(C(=O)c3ccc(F)cc3)cc2)c1C", "Potency": "inconclusive: 2.51 µM [inhibitor, partial curve, poor fit]"}
{"smiles": "CCCCOC(=O)c1ccc(OC(=O)c2sc3ncn(Cc4ccccc4Cl)c(=O)c3c2C)cc1", "activity change, negative = inhibition": "inactive: 5.39% [at 46.1 µM]"}
{"smiles": "CCC(C)(C)n1nnnc1C(c1ccc(OC)c(OC)c1)N1CCN(c2ccccc2)CC1", "note": "(centres undefined)", "Potency": "inconclusive: 35.5 µM [inhibitor, partial curve, poor fit]"}
{"smiles": "Cn1cnc([N+](=O)[O-])c1Sc1nc(N)nc2c1ncn2Cc1ccccc1", "activity change, negative = inhibition": "inactive: -28.1%"}
{"smiles": "O=C(NCc1ccc(Cl)cc1)C1CCN(C(=O)Cc2ccccc2)CC1", "activity change, negative = inhibition": "inactive: -4.82%"}
{"smiles": "CC(/C=C1\\SC(=O)N(CC(=O)Nc2ccc(O)cc2)C1=O)=C\\c1ccccc1", "activity change, negative = inhibition": "inactive: -23.8%"}
{"smiles": "CC(C)(C)N(Cc1ccccc1)C(=O)COC(=O)c1ccccc1SCC(=O)N1CCCC1", "Potency": "inconclusive: 10 µM [inhibitor, partial curve, poor fit]"}
{"smiles": "O=[N+]([O-])c1ccc(NC(=S)N2CCN(c3ccccn3)CC2)cc1", "Potency": "inconclusive: 2.82 µM [inhibitor, partial curve, poor fit]"}
{"smiles": "Cc1onc(-c2c(F)cccc2Cl)c1C(=O)N=C(N)N1CC(C)OC(C)C1", "note": "(centres undefined)", "activity change, negative = inhibition": "inactive: 2.39%"}
{"smiles": "Cc1csc(NC(=O)c2ccc(C)o2)n1", "Potency": "inconclusive: 2.24 µM [activator, partial curve, poor fit]"}
{"smiles": "CCN(CC(=O)Nc1ccc(OC)c(OC)c1)S(=O)(=O)c1ccc(C)cc1", "activity change, negative = inhibition": "inactive: -1.59%"}
{"smiles": "Cc1ccc(Nc2nc(CSc3nnc(-c4ccncc4)n3-c3ccccc3C)cs2)cc1", "Potency": "active: 8.91 µM"}
{"smiles": "O=C(Cc1cnc2ncnn2c1)N1CCc2c([nH]c3ccccc23)C1c1ccccc1F", "note": "(centres undefined)", "Potency": "inconclusive: 5.01 µM [inhibitor, full curve, poor fit]"}
{"smiles": "O=C(NCC1CCCCC1)C1CCC(=O)N(CCc2cccc(F)c2)C1", "note": "(centres undefined)", "activity change, negative = inhibition": "inactive: -5.42% [at 46.1 µM]"}
{"smiles": "FC(F)(F)c1cccc(NC(=S)NC2CCCC2)c1", "activity change, negative = inhibition": "inactive: -3.32%"}
{"smiles": "COc1ccc(C(=O)OCC(=O)NCc2ccc3c(c2)OCO3)cc1[N+](=O)[O-]", "Potency": "inconclusive: 1.26 µM [inhibitor, single point]"}
{"smiles": "O=C(NCCN1CCN(c2ccccc2)CC1)Nc1ccc(Cl)cc1", "Potency": "inconclusive: 35.5 µM [inhibitor, single point]"}
{"smiles": "N#CCCN(NC1=NS(=O)(=O)c2ccccc21)C(=O)c1ccccc1Br", "activity change, negative = inhibition": "inactive: 3.69% [at 46.1 µM]"}
{"smiles": "COc1ccccc1N1CCN(C(c2ccc(Cl)cc2)c2nnc(-c3cccc(F)c3)o2)CC1", "note": "(centres undefined)", "Potency": "inconclusive: 25.1 µM [inhibitor, single point]"}
{"smiles": "OCC1(CCOc2ccccc2)CCN(Cc2ccc3cccc(F)c3n2)CC1", "Potency": "inconclusive: 12.6 µM [inhibitor, single point]"}
{"smiles": "CCOc1cc(N2CCOCC2)c(OCC)cc1NC(=O)COC(=O)COc1cc(C)cc(C)c1", "Potency": "inconclusive: 0.447 µM [inhibitor, partial curve, poor fit]"}
